Values quoted from earlier work, collected in patent US4771046A, “Carbapenem derivatives” (Sankyo Company, Limited, priority 1985, dated 1988).
At least one compound was matched to its structure with a doubt left.

Tested on: bacteria
Details: known; cited from earlier work

For `C[C@@H](O)[C@H]1C(=O)N2C(C(=O)O)=C(SCCN)C[C@H]12` [thienamycin, 2-(2-aminoethylthio)-6-(1-hydroxyethyl)carbapen-2-em-3-carboxylic acid], the antibacterial activity is given as “remarkably potent and broad antibacterial activity”.
